Calls as published in the ROBIN set (doi:10.1002/anie.202211358).

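Each compound is printed as two spots on a slide made to bind it covalently, so it has no test concentration; the read-out is fluorescence of the bound, labelled oligonucleotide. For the PreQ1, TPP and SAM-II riboswitches the laboratory earlier reported (doi:10.1038/s41467-019-09493-3) 1 µM RNA, 2 h, and a rule that included a mean Z-score above 3 (spot signal-to-noise against the whole library), a score well above that on a control array, and duplicate spots agreeing (coefficient of variation under 100). The data file gives only the calls; its cut-offs may differ, and compounds hitting several targets are kept. A missing hit is not proof of no binding, and a hit is not a measured affinity.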
A compound is marked hit if it was called a hit and no hit if it was screened but was not.
The compounds are a random part of those screened.
A target missing from an entry has no call listed here.

Targets, with sequences 5′ to 3′:
TPP: TPP riboswitch RNA three-way junction, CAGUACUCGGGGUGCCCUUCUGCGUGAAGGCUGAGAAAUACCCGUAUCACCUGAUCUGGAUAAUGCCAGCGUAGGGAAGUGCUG. About 160 hits among about 24,000 compounds.
PreQ1: PreQ1 riboswitch RNA pseudoknot, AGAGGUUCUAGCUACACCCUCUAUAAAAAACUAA. From B. subtilis. About 170 hits among about 24,000 compounds.
SAM-II: SAM-II riboswitch RNA pseudoknot, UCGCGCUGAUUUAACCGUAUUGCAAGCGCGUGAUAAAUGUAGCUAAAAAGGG. About 200 hits among about 21,000 compounds.

With NC(=O)N1c2ccccc2CC(=O)c2ccccc21 the screen gave TPP: no hit; PreQ1: no hit; SAM-II: no hit. For Clc1ccc(CCNc2cc(-c3ccccc3)nc3nncn23)cc1 the calls were TPP: no hit; PreQ1: no hit. Cc1[nH]c2c(C)ccc(C)c2c1CCN was scored TPP: no hit; PreQ1: no hit; SAM-II: no hit. Cc1ccc(S(=O)(=O)N2CCN(c3cc(C)nc(NC4CCCCC4)n3)CC2)cc1 was scored TPP: no hit; PreQ1: no hit. For Cc1ccsc1CNc1ccc(C(=O)N(C)CCN2CCCCC2=O)cc1 the calls were TPP: no hit; PreQ1: no hit; SAM-II: no hit. NC1=C(c2nc3ccccc3[nH]2)C(=O)CN1c1ccc(Cl)cc1Cl was scored TPP: no hit; PreQ1: no hit. Calls for CCOC(=O)N1CCC(N[C@H]2COC[C@@H]2OCC)CC1 are TPP: no hit; PreQ1: no hit; SAM-II: no hit.

CC(C)(O)C#Cc1ccc(C(=O)N2C[C@H](O)[C@@H](N3CCCC3)C2)cc1 was scored TPP: no hit; PreQ1: no hit; SAM-II: no hit. With COc1ccc2oc(C)c(C(O)c3cc4ccccc4o3)c2c1 (stereo not drawn) the screen gave TPP: no hit; PreQ1: no hit; SAM-II: no hit. For O=C(Nc1cc2cc[nH]c2cn1)c1ccccc1 the calls were TPP: no hit; PreQ1: no hit; SAM-II: no hit. Cc1ccc(-n2nc(CO)c(C(=O)NCc3cccnc3)n2)cc1C was scored TPP: no hit; PreQ1: no hit. CN(C)c1ccc(/C=C/c2ccc3ccccc3n2)cc1 was scored TPP: no hit; PreQ1: no hit; SAM-II: no hit. Calls for Cc1ccccc1Cn1c(NCC2CCCO2)nc2c1c(=O)n(C)c(=O)n2C (stereo not drawn) are TPP: no hit; PreQ1: no hit; SAM-II: no hit. With COc1ccc(CCNc2oc(-c3ccc(C)cc3)nc2C#N)cc1OC the screen gave TPP: no hit; PreQ1: no hit; SAM-II: no hit.

COc1ccc2c(c1)cc(CO)c(=O)n2C was scored TPP: no hit; PreQ1: no hit; SAM-II: no hit. For c1coc(CN2CCC(NCC3CCN(C4CCCC4)CC3)CC2)c1 the calls were TPP: no hit; PreQ1: no hit; SAM-II: no hit. CSc1ccc(NC(=O)Nc2cc(C)ccn2)cc1 was scored TPP: no hit; PreQ1: no hit; SAM-II: hit. Nc1ccc2nn(-c3ccccc3)nc2c1 was scored TPP: no hit; PreQ1: no hit; SAM-II: no hit. For Cl.Nc1cccc(C(=O)Nc2cccc(S(=O)(=O)CCO)c2)c1 the calls were TPP: no hit; PreQ1: no hit; SAM-II: no hit. CCCSc1ncnc2[nH]ncc12 was scored TPP: no hit; PreQ1: no hit; SAM-II: no hit.

For reference, 2 entries once more:

| Compound | TPP | PreQ1 | SAM-II |
|---|---|---|---|
| `CCOC(=O)N1CCC(N[C@H]2COC[C@@H]2OCC)CC1` | no hit | no hit | no hit |
| `CC(C)(O)C#Cc1ccc(C(=O)N2C[C@H](O)[C@@H](N3CCCC3)C2)cc1` | no hit | no hit | no hit |